# Results published in PubChem BioAssay AID485298 (National Center for Advancing Translational Sciences (NCATS), 2010).
# Hit rate of the full screen: of about 320,000 compounds, about 740 (0.23%) were called active. Inconclusive results, whose numbers are uncertain, are shown with a selection of clear calls. Calls come from the whole dose curve; as a rule, active = well fitted activation curve with a large enough effect; inconclusive = small, poorly fitted or top-dose-only effect; inactive = no such curve, though single readings can be large or run the other way. Potencies beside an inconclusive call are fits to weak or partial responses and may not hold up.
# Experiment: qHTS Assay for Small Molecule Inhibitors of Mitochondrial Division or Activators of Mitochondrial Fusion; note: nearly all actives have a fitted effect of over 45% in size;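 for growth rescue (activation): temperature-sensitive fusion mutants such as fzo1-1 at 37 °C on non-fermentable ethanol glycerol medium; % of control where 0% means no effect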
# Settings: S. cerevisiae fusion-defective mutant growth rescue, CellTiterGlo 48 h; growth rescue (activation): at 46.1 µM (top of the series) unless noted
# Outline: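 Luminescent cell viability in 1536-well qHTS format served as the measure of rescued growth in ts fusion-mutant S. cerevisiae cultured on non-fermentable YPEG for 48 hours at 37C.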
# Potency is the fitted concentration of half-maximal effect.
Structure (SMILES),Potency,growth rescue (activation)
Cc1cccc(-n2nc([N+](=O)[O-])c(=NC3CCN(Cc4ccccc4)CC3)n2O)c1,"inconclusive: 22.4 µM [activator, single point]",–
COc1ccccc1NC(=O)C(C)Sc1nc2ccccc2c(=O)n1CC1CCCO1 (stereo unspecified),"inconclusive: 14.1 µM [activator, single point]",–
CCC(=O)Nc1cc(ON=C(C)C)cc([N+](=O)[O-])c1,"inconclusive: 31.6 µM [activator, single point]",–
C[C@H]1C[C@@H]2[C@H]([C@@H](O)C[C@@]3(C)[C@H]2CC[C@]3(O)C(=O)CO)[C@@]2(C)C=CC(=O)C=C12,"inconclusive: 6.31 µM [activator, single point]",–
CCOc1ccc(-c2c(C(=O)N/N=C/c3c[nH]c4ccccc34)nnn2-c2nonc2N)cc1,–,inactive: -1.8%
Cc1ccsc1C(=O)OCC(=O)Nc1cccc(S(=O)(=O)NC2=NCCCCC2)c1,"inconclusive: 5.62 µM [activator, single point]",–
O=C(Nc1cccc(-c2cn3ccccc3n2)c1)c1cccc(Cl)c1,"inconclusive: 17.8 µM [activator, single point]",–
CCS(=O)(=O)n1nc(-c2ccccc2)cc1N,–,inactive: -0.439%
CC(NCc1ccc(F)cc1)C(=O)Nc1cc(S(=O)(=O)N2CCCCC2)ccc1Cl (stereo unspecified),"inconclusive: 35.5 µM [activator, single point]",–
COC(C[C@@H](O)[C@H](C)[C@@H](O)COCc1ccccc1)OC,"inconclusive: 2.82 µM [activator, partial curve]",–
CC(C)C(OC(=O)c1cc2occc2n1C)C(=O)NCc1ccc2c(c1)OCO2 (stereo unspecified),"inconclusive: 11.2 µM [activator, partial curve]",–
Cc1cccc(C)c1NC(=S)NCc1ccccc1,"inconclusive: 35.5 µM [activator, single point]",–
COc1cc2cnc(-c3ccccc3)c(-c3ccc([N+](=O)[O-])cc3)c2cc1OC,"inconclusive: 6.31 µM [activator, single point]",–
COC(=O)c1ccsc1NC(=O)CN1CCN(c2ccc(F)cc2)CC1,"inconclusive: 12.6 µM [activator, partial curve]",–
CCCc1cc(-c2nc(N)ncc2-c2ccc3c(c2)OCCCO3)c(O)cc1OC,"inconclusive: 20 µM [activator, partial curve]",–
Cc1[nH]c2ccccc2c1SCC(=O)N1CCCc2ccccc21,"inconclusive: 22.4 µM [activator, single point]",–
Cc1cccc(NC(=S)NCc2ccc3[nH]c4c(c3c2)CCCC4)c1,"inconclusive: 25.1 µM [activator, single point]",–
COc1ccccc1N1CCN(C(=O)c2ccc3[nH]c4c(c3c2)CC(C)CC4)CC1 (stereo unspecified),"inconclusive: 35.5 µM [activator, single point]",–
Cc1oc(-c2ccc(Cl)cc2)nc1CN1CCCN(C(=O)c2ccco2)CC1,–,inactive: -3.99%
CCOc1ccccc1-n1c(SCC(N)=O)nnc1-c1ccc(O)cc1,–,inactive: 0.413%
O=C(NNC(=S)Nc1ccc(Cl)cc1)c1ccccc1OC(F)F,"inconclusive: 35.5 µM [activator, single point]",–
Cc1ccc(C(=O)OCC(=O)c2c[nH]c3ccccc23)cc1S(=O)(=O)N1CCCCC1,–,inactive: -0.802%
CC(C)CC(c1nnnn1CC1CCCO1)N1CCN(c2nc3ccccc3s2)CC1 (stereo unspecified),"inconclusive: 12.6 µM [activator, partial curve]",–
O=C(Nc1ncc(Cc2ccccc2)s1)c1cccs1,"inconclusive: 14.1 µM [activator, partial curve]",–

Structure (SMILES),Potency,growth rescue (activation)
CS(=O)(=O)N1CCc2cc(-c3csc(NC(=O)Cc4ccccc4)n3)ccc21,–,inactive: 13.8%
O=C(/C=C/c1c(F)cccc1Cl)N1CCc2ccccc2C1,"inconclusive: 25.1 µM [activator, single point]",–
CCn1cc(-c2cc(C(=O)O)c3ccccc3n2)c(C)n1,–,inactive: -9.56%
CN(C)c1nc(N(C)C)nc(N(C)C)n1,"inconclusive: 0.0326 µM [activator, full curve, poor fit]",–
CCOC(=O)Cn1cc(/C=N/NC(=O)c2cc3ccccc3o2)c2ccccc21,"inconclusive: 5.62 µM [activator, single point]",–
COc1ccc(CNc2nc(NCc3ccc(OC)cc3)n(S(C)(=O)=O)n2)cc1,–,inactive: 10.3%
CCCn1c2c(c(O)c(C(=O)Nc3ncccc3C)c1=O)CCCC2,"inconclusive: 17.8 µM [activator, single point]",–
COc1ccc(-c2cn3cccc(C)c3n2)cc1Br,–,inactive: 14.6%
CCn1c(Sc2ccc(N)cc2Cl)nc2ccccc21,"inconclusive: 12.6 µM [activator, single point]",–
COc1ccc(S(=O)(=O)N=Nc2c(O)[nH]c3ccccc23)cc1,"inconclusive: 12.6 µM [activator, partial curve]",–
O=C(N/N=C/c1cn(-c2ccccc2)nc1-c1cccs1)c1ccccc1F,"inconclusive: 15.8 µM [activator, partial curve]",–
O=C(N/N=C/c1ccc(Cl)cc1Cl)c1ccncc1,–,inactive: -1.66%
Fc1ccc(COc2ccc(Br)cc2CNCc2ccncc2)cc1,"inconclusive: 22.4 µM [activator, single point]",–
COc1ccc(/C=C/c2nc(-c3ccccc3O)n[nH]2)cc1OC,"inconclusive: 22.4 µM [activator, single point]",–
COc1ccc(NC(=O)CCNS(=O)(=O)c2ccc3c(c2)CC(C)N3C(=O)C2CC2)cc1 (stereo unspecified),"inconclusive: 8.91 µM [activator, partial curve, poor fit]",–
CNc1oc(-c2cccs2)nc1C#N,–,inactive: -0.531%
COc1ccc([C@H]2CC(=O)C=C(c3ccc(NC(C)=O)cc3)C2)cc1OC,–,inactive: -11.7%
O=C(OCc1nc2ccccc2s1)c1ccc(Br)s1,"inconclusive: 5.62 µM [activator, single point]",–
Cc1ccc(Nc2cc(C)nn2-c2nc(C)cc(=O)[nH]2)cc1,–,inactive: -29%
Nc1cc(C2CCCC2)nn1-c1ccccc1,–,inactive: -7.53%
O=c1c2ccccc2nc(SCc2ccc(F)cc2Cl)n1CCCN1CCOCC1,"inconclusive: 17.8 µM [activator, partial curve]",–
CC(CNC(=O)c1cc(COc2ccc3ncccc3c2)on1)c1ccccc1 (stereo unspecified),"inconclusive: 22.4 µM [activator, single point]",–
CCCCCCCCOc1ccc(C2CC(=O)NC2=O)cc1 (stereo unspecified),"inconclusive: 31.6 µM [activator, single point]",–
COc1ccc(-c2nc3ncccc3o2)cc1NC(=O)c1cccs1,"inconclusive: 35.5 µM [activator, partial curve]",–

# A stretch of the results above, for reference:
Structure (SMILES),Potency,growth rescue (activation)
Cc1ccc(Nc2cc(C)nn2-c2nc(C)cc(=O)[nH]2)cc1,–,inactive: -29%
Nc1cc(C2CCCC2)nn1-c1ccccc1,–,inactive: -7.53%
O=c1c2ccccc2nc(SCc2ccc(F)cc2Cl)n1CCCN1CCOCC1,"inconclusive: 17.8 µM [activator, partial curve]",–

# Ordered by formula weight (ascending): 3 of the compounds above
Structure (SMILES),Potency,growth rescue (activation)
O=C(N/N=C/c1ccc(Cl)cc1Cl)c1ccncc1,–,inactive: -1.66%
COc1ccc(/C=C/c2nc(-c3ccccc3O)n[nH]2)cc1OC,"inconclusive: 22.4 µM [activator, single point]",–
O=C(OCc1nc2ccccc2s1)c1ccc(Br)s1,"inconclusive: 5.62 µM [activator, single point]",–

# Remaining list, next part

Structure (SMILES),Potency,growth rescue (activation)
NS(=O)(=O)c1ccc(N2CCCC2=O)c([N+](=O)[O-])c1,–,inactive: 8.3%
O=C(Nc1cccc(S(=O)(=O)Nc2ccc(Cl)cc2)c1)c1ccc(Cl)nc1,–,inactive: -1.13%
C=CCN1CCc2c(cc(O)c(O)c2Br)[C@@H](c2ccccc2)C1,active: 16.4 µM,–
Cc1ccc(N(C(=O)c2ccn[nH]2)C(C(=O)NC2CCCC2)c2cccs2)cc1 (stereo unspecified),–,inactive: 0.507%
COc1cc(OC)cc(N(C(=O)CNC(=O)c2cccs2)C(C(=O)NCC2CCCO2)c2ccccc2)c1 (stereo unspecified),–,inactive: -4.12%
CN(Cc1ccco1)S(=O)(=O)c1nnc(NC(=O)c2cccc(Cl)c2)s1,"inconclusive: 3.55 µM [activator, full curve]",–
COc1cc(C(=O)N/N=C/C2CC=CCC2)cc(OC)c1OC (stereo unspecified),–,inactive: -0.964%
Cc1cc(Cl)ccc1OCCCC(=O)N1CCN(S(=O)(=O)c2ccccc2)CC1,"inconclusive: 15.8 µM [activator, partial curve]",–
O=C(NCCC(c1ccccc1)c1ccccc1)c1cccs1,"inconclusive: 17.8 µM [activator, single point]",–
COc1ccc(CN2C(=O)C(Cc3ccccc3)Nc3ncnc(N4CCN(c5ccccc5)CC4)c32)cc1 (stereo unspecified),"inconclusive: 17.8 µM [activator, single point]",–
CCCN(CCC)C(=O)c1ccc2nc(-c3ccc(OC)c(OC)c3)c(-c3ccc(OC)c(OC)c3)nc2c1,"inconclusive: 35.5 µM [activator, partial curve]",–
COc1cc(OC)c(NC(=S)Nc2cccc(C(C)=O)c2)cc1Cl,–,inactive: -8.74%
O=c1c2c3c(sc2nc2n1CCC2)CCCCC3,"inconclusive: 10 µM [activator, partial curve]",–
CCOC(=O)C12CC1/C(=N/O)c1ccccc1O2 (stereo unspecified),"inconclusive: 20.6 µM [activator, single point]",–
O=C(NCc1ccco1)C1CCN(c2nc3ccccc3n2Cc2ccccc2F)CC1,"inconclusive: 17.8 µM [activator, partial curve]",–
NC(=O)C1CCN(c2nc(-c3cc4ccccc4o3)cs2)CC1,–,inactive: -32.6%
O=c1c2ccccc2sc2nc(C3CCCCC3)n(Cc3ccco3)c(=O)c12,active: 3.55 µM,–
Cc1cc(C)c(C(=O)OCC(=O)NCc2cccs2)c(C)c1,"inconclusive: 6.31 µM [activator, single point]",–
CCCCOC1(c2ccccc2)NC(=S)NN=C1c1ccccc1 (stereo unspecified),–,inactive: 14.9%
COc1ccc(Nc2nc(CC(C)=O)ns2)cc1,–,inactive: -1.63%
CCC(C)n1c(=S)[nH]c2c(sc3ccc([N+](=O)[O-])cc32)c1=O (stereo unspecified),"inconclusive: 22.4 µM [activator, single point]",–
Clc1ccccc1N=C1NN=C(c2cccs2)CS1,"inconclusive: 22.4 µM [activator, single point]",–
Cc1cccc(C)c1NC(=O)c1ccc(-c2ccc(Cl)cc2Cl)o1,"inconclusive: 10 µM [activator, partial curve]",–
